## Library screening results

The chains behind the UniProt entries cited, without tags or fusion partners.
UniProt E9BF75, entry or part of it: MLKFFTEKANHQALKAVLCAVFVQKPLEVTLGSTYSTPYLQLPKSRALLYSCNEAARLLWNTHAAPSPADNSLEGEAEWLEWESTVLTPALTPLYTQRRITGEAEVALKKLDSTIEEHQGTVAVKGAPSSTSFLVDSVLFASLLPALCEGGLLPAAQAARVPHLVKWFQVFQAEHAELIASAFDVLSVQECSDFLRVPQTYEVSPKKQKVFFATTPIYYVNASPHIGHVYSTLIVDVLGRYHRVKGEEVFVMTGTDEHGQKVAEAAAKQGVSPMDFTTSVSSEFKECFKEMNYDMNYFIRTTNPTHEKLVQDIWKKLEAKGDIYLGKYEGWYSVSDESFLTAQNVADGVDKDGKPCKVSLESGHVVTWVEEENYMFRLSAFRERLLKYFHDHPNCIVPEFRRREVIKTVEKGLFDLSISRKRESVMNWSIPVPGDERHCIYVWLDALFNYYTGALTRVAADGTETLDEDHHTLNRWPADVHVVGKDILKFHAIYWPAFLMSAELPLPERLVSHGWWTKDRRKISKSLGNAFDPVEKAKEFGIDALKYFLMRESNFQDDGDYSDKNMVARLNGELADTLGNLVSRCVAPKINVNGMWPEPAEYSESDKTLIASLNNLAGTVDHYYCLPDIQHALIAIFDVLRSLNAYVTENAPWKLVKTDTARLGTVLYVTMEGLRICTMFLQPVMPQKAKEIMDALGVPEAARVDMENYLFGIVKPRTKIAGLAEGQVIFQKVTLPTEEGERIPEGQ

All values are in %.
The record does not define 0% and 100%; most values in the screen are far below 50% and negative numbers occur (in some assays of this library far below -100).
Compounds were drawn at random from those tested, without regard to their results.

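Methionyl-tRNA synthetase (putative), Leishmania donovani (UniProt E9BF75). Primary screen of methionyl-tRNA synthetase; the read-out is not stated. The test concentration is not given. Values are per cent inhibition. About 68,000 compounds were tested under these conditions; 0.035% (about 24) showed 50% or more at least once.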

| structure | Inhibition |
|---|---|
| `Nc1ncc(-c2cccc(NC(=O)[C@@H]3CCCCN3)c2)cn1` | 9.466% |
| `COCC(=O)N1CCC(C(=O)Nc2ccc(C(C)=O)cc2)CC1` | 1.961% |
| `COc1cccc(S(=O)(=O)CCN2CCN(CC(F)F)CC2)c1` | 15.03% |
| `Cc1nn(C)c(C)c1-c1c(-c2ccccc2)ncn1[C@H](CO)C(=O)O` | 4.658% |
| `CCN(CC)C(=O)CSc1nc2c(cnn2CCO)c(=O)[nH]1` | 9.014% |
| `Cc1noc(C)c1-c1cncc(C2CCCN2Cc2ncccc2F)n1` (centres undefined) | 3.883% |
| `CC(C)N(C)C(=O)c1coc(CN2CCN(c3ccccc3F)CC2)n1` | 15.84% |
| `CSCc1cc(C(=O)NC2(C#N)CCSC2)ccc1F` (centres undefined) | 6.866% |
| `CCC(=O)N1CCc2[nH]cnc2C12CCN(C(=O)CCS(C)(=O)=O)CC2` | 7.965% |
| `Cc1nc2c(C#N)cnn2c(C)c1CCC(=O)N(C)C(C)C(C)C` (centres undefined) | 12.59% |
| `CC(=O)N1CCc2cc(C(=O)O)c(-c3ccsc3)nc2CC1` | 11.96% |
| `CCC1C(=O)NCCN1c1nccc(C)n1` (centres undefined) | 11.54% |
| `O=C(O)c1cccnc1CN1CCCCC1CCc1cccs1` (centres undefined) | 1.305% |
| `Cc1nc2ccccc2n1CCNCc1cccc(O)c1` | 14.93% |
| `CN1C(=O)[C@H]2CC[C@@H]1CN(c1ncnc3ccsc13)C2` | 20.96% |
| `CN(Cc1ccco1)C[C@H]1OC[C@@H]2CN(c3ncc(F)cn3)CC[C@@H]21` | 13.74% |
| `Cc1occc1C(=O)N1CCO[C@H]2[C@H](OCc3ccccn3)CC[C@@H]21` | 19.23% |
| `CC(Cn1ccnc1)NC(=O)N(C)Cc1ccco1` (centres undefined) | 6.774% |
| `Cc1ccc(CN2CCOC3(COCCN(S(C)(=O)=O)C3)C2)o1` (centres undefined) | 15.04% |
| `CC(C)(C)n1cc(C2=CCN(CCc3ccccn3)CC2)cn1` | 10.86% |
| `CS(=O)(=O)c1ccc(C(=O)N2CCCC(n3cccn3)C2)cc1` (centres undefined) | 20.2% |
| `CCN(Cc1ccc2c(c1)OCO2)C(=O)c1ccc(=O)n(C)c1` | 5.455% |
| `COCCOCC(=O)Nc1ccnn1-c1ccc(Cl)cc1` | 8.657% |
| `Cc1cccc(CNc2cncc(-n3cccn3)n2)c1` | 13.25% |
| `CC(=O)N1N=C(COc2ccc(Cl)cc2)OC1c1ccccc1` (centres undefined) | 16.91% |
| `CN(CC(=O)Nc1nncs1)CC1CCCN1c1cccnn1` (centres undefined) | 2.747% |
| `COc1ccc(CN(C)Cc2c(C)noc2C)c(Cl)c1OC` | 7.046% |
| `CN(Cc1nnc(C2CC2)n1C)C(=O)c1ccnc(OC2CCC2)c1` | 13.41% |
| `CN1CCC(Cc2cnc(CNC(=O)Cc3cccc(F)c3)cn2)CC1` | 12.21% |
| `CCc1noc(CC)c1CC(=O)N1CCN(C(=O)C2CCCC2)CC1` | 16.45% |
| `CCc1nnc2n1CCN(C(=O)CCc1ccc(C)c(Cl)c1)C2` | 15.25% |
| `CC(=O)N1CCCN(C(=O)NCCCc2cn[nH]c2C)CC1` | 4.348% |
| `CC(C)=CCN1C(=O)[C@H]2CC[C@@H]1CN(Cc1cccnc1N)C2` | 7.08% |
| `C[C@H](NC(=O)N1CCN(c2ccc(Cl)cc2)CC1)C(=O)N1CCSCC1` | 7.184% |
| `CN(CCn1cccn1)c1cc(C(F)(F)F)nc(-c2cccnc2)n1` | 14.8% |
| `Cc1nn(C)c(Cl)c1C1CCCN1C(=O)c1cc(Cl)c[nH]1` (centres undefined) | 3.922% |
| `COc1ccnc(N2CCN(C(=O)Cc3ccc(C#N)cc3)CC2)n1` | 23.61% |
| `CCCn1nc(C(=O)NC2(c3ccc(Cl)cc3)CCCC2)ccc1=O` | -5.263% |
| `CCOC(=O)CCn1cnc2onc(-c3cc(OC)ccc3Cl)c2c1=O` | 5.248% |
| `COc1cc(C)nc(N2CCN(C(=O)c3ccccc3C)CC2)n1` | 9.15% |
| `c1cncc(COCc2nnc3n2CCN(CC2CC2)C3)c1` | 20.74% |
| `Cc1cc(CNC(=O)N2CCc3ccccc32)on1` | 9.926% |
| `CN(CCC(F)(F)F)C(=O)[C@H]1CSCN1C(=O)OC(C)(C)C` | 3.448% |
| `Cc1ccsc1CNC(=O)N1CCC(Cc2cnn(C)c2)C1` (centres undefined) | 12.63% |
| `CCN1CC[C@@]2(C(=O)N3CCOCC3)CCN(C(=O)NC)CC[C@@H]12` | 7.778% |
| `c1ccc(O[C@@H]2CO[C@@]3(CCCN(CC4CCOCC4)C3)C2)nc1` | 16.48% |
| `CCn1cc2c(n1)CN(S(=O)(=O)c1ccc(C)cc1)CC2COC` (centres undefined) | 13.59% |
| `O=C1COc2ccc(C(=O)NS(=O)(=O)c3ccc(F)cc3F)cc2N1` | 10.24% |
| `CN(CC1(CO)CCC1)C(=O)c1cc(COc2ccccc2F)[nH]n1` | 21.49% |
| `CC(C)c1noc(C2CCCN2C(=O)CN2CCc3ccccc32)n1` (centres undefined) | 14.78% |
| `CC(=O)N1CCN(Cc2coc(-c3cccc(F)c3)n2)CC1` | 16.24% |
| `CC1CCCN(CCNC(=O)c2ccn(-c3cccc(F)c3)n2)C1` (centres undefined) | 16.81% |
| `CC(C)CNC(=O)Nc1cccc(CN2CCOC2=O)c1` | 6.367% |
| `Cc1cc(NCc2ccco2)nc2[nH]nc(N)c12` | -0.303% |
| `CC(CO)CSc1ncnc2[nH]ncc12` (centres undefined) | 16.85% |
| `CN(Cc1ccsc1)C(=O)c1cc2c([nH]c1=O)CCCC2=O` | 7.937% |
| `N#Cc1c(N)nc2c(c1-c1c[nH]nc1C1CCCCC1)COCC2` | 10.36% |
| `N#Cc1cc(NC(=O)c2cc[nH]n2)ccc1N1CCC(O)CC1` | 2.174% |
| `CC[C@@]1(O)CCN(C(=O)c2ccc(CN3CCCCCC3)cc2)C[C@H]1O` | 19.86% |
| `CC(=O)N1CCn2c(C(=O)N(C)C)cnc2C1` | 17.07% |
| `Cc1cc(C)c(C(=O)NC(c2nnc3n2CCNCC3)C(C)C)c(C)c1` (centres undefined) | 12.63% |
| `COc1cc2nc3n(c(=O)c2cc1OC)CCN(C(=O)C(C)(C)C)CC3` | 5.882% |
| `c1cc(-c2noc([C@@H]3CCCN3CC3CC3)n2)cc(N2CCCC2)n1` | 12.03% |
| `c1ccc(OC2COC3(CCN(CC4CC4)CC3)C2)nc1` (centres undefined) | 9.89% |
| `Cc1cc(CN2CCN(C(=O)NCCCc3cn[nH]c3C)CC2)on1` | 5.072% |
| `O=C(CC1CC1)N1CCN(Cc2ccncc2)c2ncccc2C1` | -20.55% |
| `O[C@H]1CC[C@@H](Cc2cc(-c3ccccn3)on2)O[C@@H]1CNCC1CC1` | 6.84% |
| `c1cc2nccc(CC3CCCN(Cc4c[nH]cn4)CC3)c2cn1` (centres undefined) | 20.34% |
| `Cc1cc(OCCC(=O)Nc2cccc(F)c2)nnc1C` | 1.061% |
| `CCCc1nnc(C(=O)N(C)Cc2ccc(OC)cc2)o1` | 5.333% |
| `CC(C)c1cc(C(=O)N2CCC3(CCc4ccccc4C(=O)N3)C2)no1` (centres undefined) | 3.115% |
| `CCOc1ccc(CN2CC[C@](C)(O)C(C)(C)C2)cn1` | 9.375% |
| `CSc1ccc(CN2C[C@@H]3CC[C@@](O)(c4ccc(C)cn4)[C@@H]3C2)cc1` | -0.565% |
| `c1cnn(C2CN(c3nc(-c4ccncc4)nc4c3CCC4)C2)c1` | 20.91% |
| `Cc1cnc(N2C[C@@H]3CN(C4CCOC4)CCC[C@]3(C(=O)O)C2)nc1` (some centres undefined) | 15.06% |
| `COc1ccc(F)c(NCc2cnn(C3CCS(=O)(=O)C3)c2)c1` (centres undefined) | 8.156% |
| `CNC(=O)CCCNCc1c(C)nn(CC(C)C)c1N(C)C` | 5.694% |
| `Cc1cnn(CC2CCCN2CC(=O)N(C)CCC#N)c1` (centres undefined) | 3.261% |
| `COCCN1C[C@H]2CN(C(=O)NC(C)C)CCN2C1=O` | 6.044% |
| `Cn1ccnc1CN1CCC2(CC1)CN(c1ccccn1)CCO2` | 8.602% |
| `COCC(C)(CCO)NC(=O)Nc1cccc(Br)c1C` (centres undefined) | -0.3472% |
| `CNC(=O)Cc1noc(-c2cc3c(s2)CCCCCC3)n1` | 15.32% |
| `CC(C)(CNc1cn[nH]c(=O)c1Cl)c1ccc2c(c1)OCCO2` | 6.183% |
| `COc1ccc2c(c1)OCC(Cc1cncc(N)c1)C2` (centres undefined) | 16.85% |
| `CC(C)[C@H](NC(=O)NC1CCS(=O)(=O)C1)C(=O)NCc1ccccc1` (some centres undefined) | 11.82% |

Some entries from above, unchanged:

CN(CCC(F)(F)F)C(=O)[C@H]1CSCN1C(=O)OC(C)(C)C read 3.448%.
CCn1cc2c(n1)CN(S(=O)(=O)c1ccc(C)cc1)CC2COC (centres undefined) read 13.59%.
Cc1cnn(CC2CCCN2CC(=O)N(C)CCC#N)c1 (centres undefined) read 3.261%.
CN(CC1(CO)CCC1)C(=O)c1cc(COc2ccccc2F)[nH]n1 read 21.49%.
CN(Cc1nnc(C2CC2)n1C)C(=O)c1ccnc(OC2CCC2)c1 read 13.41%.
CN(CCn1cccn1)c1cc(C(F)(F)F)nc(-c2cccnc2)n1 read 14.8%.
O=C1COc2ccc(C(=O)NS(=O)(=O)c3ccc(F)cc3F)cc2N1 read 10.24%.
CC(=O)N1CCN(Cc2coc(-c3cccc(F)c3)n2)CC1 read 16.24%.
c1cnn(C2CN(c3nc(-c4ccncc4)nc4c3CCC4)C2)c1 read 20.91%.
c1cc2nccc(CC3CCCN(Cc4c[nH]cn4)CC3)c2cn1 (centres undefined) read 20.34%.

Source: ChEMBL document CHEMBL3988442, “University of Dundee, Small-Polar-MMV Screening Library” (2021).